Among all 350,000 compounds or so, about 220 (0.063%) were called active. The shares of active, inactive and inconclusive entries below differ from those in the screen. Calls come from the whole dose curve; as a rule, active = well fitted activation curve with a large enough effect; inconclusive = small, poorly fitted or top-dose-only effect; inactive = no such curve, though single readings can be large or run the other way. Potencies beside an inconclusive call are fits to weak or partial responses and may not hold up.
Assay: qHTS for Activators of Integrin-Mediated Alleviation for Muscular Dystrophy; note: nearly all actives have a fitted effect of over 60% in size;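 for activation: 100% = response of the positive control SU9516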
Settings: alpha7betagal myoblasts, beta-gal FDG fluorescence, 48 h; activation: at 38.3 µM (top of the series)
Method in brief: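 Alpha7betagal+/- myoblasts (passage 13) were plated 16-24 hr, then exposed to compounds (1:260 dilution of DMSO stock) for 48 hours at 37C. After MPER lysis, β-galactosidase reporter activity was read as FDG fluorescence (ex 480/em 540) after 30 minutes.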
Potency is the fitted concentration of half-maximal effect.

Row | SMILES | Potency | activation
1 | Cc1c(C#N)c(NC(=O)CCl)n(Cc2ccc(F)cc2)c1C | inactive | –
2 | NC(=O)c1ccc2nc(NC(=O)c3ccc(N)cc3)sc2c1 | inactive | –
3 | Cc1ccc(NCC(=O)c2ccc(C)cc2)cc1 | inactive | –
4 | CC(C)(C)C(=O)Nc1ccc(NC(=O)C(C)(C)C)cc1 | inconclusive: 1.58 µM [activator, partial curve, poor fit] | –
5 | CCNc1nc(NCC)nc(N/N=C(\C)c2ccc(OC)cc2)n1 | inactive | –
6 | CC(=O)c1cccc(Nc2nc3ccccc3n3cnnc23)c1 | inconclusive: 3.16 µM [activator, single point] | –
7 | CCOc1ccc(NC(=O)CNC(=O)c2ccco2)cc1 | – | inconclusive: -9.38% [activator]
8 | Cc1cc(=O)[nH]c(SCC(=O)Nc2nc3ccccc3s2)n1 | inconclusive: 5.62 µM [activator, partial curve, poor fit] | –
9 | NC(=O)c1ccc(NC(=O)CNC(=O)c2sc3ccccc3c2Cl)cc1 | inconclusive: 5.01 µM [activator, single point] | –
10 | Cc1ccc(S(=O)(=O)CC(=O)c2ccc(C)c([N+](=O)[O-])c2)cc1 | inactive | –
11 | Cc1cc(N2CCOCC2)ccc1/C=C1\NC(=O)N(Cc2ccccc2F)C1=O | inconclusive: 1.41 µM [activator, single point] | –
12 | c1ccc(NC2=Nc3ccccc3CS2)cc1 | inactive | –
13 | O=C(NCCc1ccccc1)c1ccccc1[N+](=O)[O-] | inactive | –
14 | CCOC(=O)c1nc(Nc2cccc(C)c2)c2ccccc2n1 | inconclusive: 1 µM [activator, partial curve, poor fit] | –
15 | COC(=O)C(CC(=O)c1ccc(C)cc1)n1nc(C)cc1C (stereo not given) | inconclusive: 5.01 µM [activator, single point] | –
16 | CC1CCCN(S(=O)(=O)c2ccc(C(=O)Nc3nnc(C4CC4)o3)cc2)C1 (stereo not given) | inactive | –
17 | O=C(Nc1cccc(Cl)c1)Nc1ccc2c(c1)C(=O)OC2 | inconclusive: 20 µM [activator, partial curve, poor fit] | –
18 | Cc1cc2ccc3ccccc3c2cc1CN(C)C | inactive | –
19 | Cc1ccc(S(=O)(=O)N2CCN(CC(=O)NC(C)c3ccccc3)CC2)cc1 (stereo not given) | inconclusive: 2.24 µM [activator, partial curve, poor fit] | –
20 | Cc1oc2cc(O)ccc2c(=O)c1-c1nncn1-c1ccccc1 | inconclusive: 3.98 µM [activator, single point] | –
21 | Cc1ccc(C(=O)Nc2ccc(C(F)(F)F)n(C)c2=O)cc1 | inconclusive: 5.01 µM [activator, full curve, poor fit] | –
22 | O=C(NCc1ccccc1)c1ccccc1C(=O)c1ncc[nH]1 | inconclusive: 6.31 µM [activator, partial curve, poor fit] | –
23 | O=C(CCCc1nc(-c2ccccc2Cl)no1)NC1CCCCC1 | inconclusive: 0.501 µM [activator, full curve, poor fit] | –
24 | COc1ccc2c(C)c(CC(=O)N3CCN(C(=O)C4COc5ccccc5O4)CC3)c(=O)oc2c1 (stereo not given) | inconclusive: 1.41 µM [activator, partial curve, poor fit] | –

Row | SMILES | Potency | activation
25 | Cc1c(/C=N/O)c2ccccn2c1C(=O)c1ccc(F)cc1 | inconclusive: 8.91 µM [activator, partial curve, poor fit] | –
26 | Cc1ccc([N+](=O)[O-])c(NC(=O)COC(=O)C2CC3CCCC(C2)C3=O)c1C (stereo not given) | inconclusive: 11.2 µM [activator, single point] | –
27 | CC(=NNC(=S)N1CCCC1)c1ccccn1 | – | inconclusive: -57.1% [activator]
28 | CCOC(=O)c1c(C)nn(-c2ccc(NC(=O)c3cccs3)cc2)c1C | inconclusive: 5.01 µM [activator, single point] | –
29 | COc1cccc(Oc2ncnc(N)c2[N+](=O)[O-])c1 | inconclusive: 6.31 µM [activator, single point] | –
30 | Nc1nc(CN2CCN(Cc3ccccc3)CC2)nc(N2CCCc3ccccc32)n1 | inconclusive: 12.6 µM [activator, single point] | –
31 | CN(Cc1ccco1)C(=O)c1c[nH]c2ccc(S(=O)(=O)Nc3ccc4c(c3)OCCO4)cc2c1=O | inactive | –
32 | CC(OC(=O)c1ccc2c(c1)NC(=O)CS2)C(=O)c1ccc(F)cc1 (stereo not given) | inconclusive: 5.01 µM [activator, single point] | –
33 | CCOC(=O)c1c(C)[nH]c(C)c1S(=O)(=O)N1CCN(c2ccc(F)cc2)CC1 | inactive | –
34 | Cc1ccc2[nH]c(=O)c3cc(C(=O)N(C)c4ccccc4C)sc3c2c1 | inconclusive: 0.891 µM [activator, partial curve, poor fit] | –
35 | CCOC(=O)Cc1csc(N/N=C\c2ccc(N(C)C)cc2)n1 | inconclusive: 10 µM [activator, partial curve, poor fit] | –
36 | Cc1ccc2[nH]c(=O)c3cc(C(=O)N(C)C4CCCCC4)sc3c2c1 | inconclusive: 17.8 µM [activator, partial curve, poor fit] | –
37 | COc1ccc(N(CC(=O)N2CCN(c3cc(C)ccc3C)CC2)S(=O)(=O)c2c(C)noc2C)cc1 | inconclusive: 10 µM [activator, single point] | –
38 | CCOc1ccc(NC(=O)CC2CC(C)(C)OC2=O)cc1 (stereo not given) | inactive | –
39 | CC(C)n1c(SCc2ccc(Cl)cc2)nc2c1c(=O)[nH]c(=O)n2C | inconclusive: 5.62 µM [activator, partial curve, poor fit] | –
40 | CCSC1=C(C#N)C(c2cccs2)C(C(=O)OC)=C(C)N1 (stereo not given) | inactive | –
41 | O=C(COc1ccc(Br)cc1)NCCCNC(=O)c1ccncc1 | inconclusive: 8.91 µM [activator, single point] | –
42 | CC(=O)N1CCOc2ccc(S(=O)(=O)N3CCC(C(=O)Nc4ccc(C)c(C)c4)CC3)cc21 | inconclusive: 2.24 µM [activator, partial curve, poor fit] | –
43 | CNc1nnc(-c2cccc(N(C)C)c2)s1 | inactive | –
44 | O=C(Nc1cccc(Cl)c1)C1COc2ccccc2O1 (stereo not given) | inconclusive: 14.1 µM [activator, partial curve, poor fit] | –
45 | CC(=O)c1ccc(N(C(=O)CNC(=O)c2ccco2)C(C(=O)NC2CCCC2)c2ccc(C)o2)cc1 (stereo not given) | active: 10 µM | –
46 | CC1CCc2c(sc(NC(=O)c3cccn3C)c2C(N)=O)C1 (stereo not given) | inconclusive: 2.82 µM [activator, full curve, poor fit] | –
47 | Cn1nnc(NC(=O)c2ccco2)n1 | inactive | –
48 | CCOC(=O)c1c(NC(=O)Nc2ccccc2)sc(C)c1C | inconclusive: 5.62 µM [activator, partial curve, poor fit] | –

Looked up above:
Cc1c(C#N)c(NC(=O)CCl)n(Cc2ccc(F)cc2)c1C – Potency: inactive
O=C(NCc1ccccc1)c1ccccc1C(=O)c1ncc[nH]1 – Potency: inconclusive: 6.31 µM [activator, partial curve, poor fit]
CCOC(=O)c1c(C)[nH]c(C)c1S(=O)(=O)N1CCN(c2ccc(F)cc2)CC1 – Potency: inactive
Cc1c(/C=N/O)c2ccccn2c1C(=O)c1ccc(F)cc1 – Potency: inconclusive: 8.91 µM [activator, partial curve, poor fit]
O=C(Nc1cccc(Cl)c1)C1COc2ccccc2O1 (stereo not given) – Potency: inconclusive: 14.1 µM [activator, partial curve, poor fit]

The list continues.

Row | SMILES | Potency | activation
49 | O=c1c2c(nc3c(-c4cccc5ccccc45)c[nH]n13)CCC2 | inactive | –
50 | COc1ccccc1N1C(=O)CC(N2CCN(c3ccc([N+](=O)[O-])cc3)CC2)C1=O (stereo not given) | inconclusive: 3.55 µM [activator, single point] | –
51 | COc1ccc2c(c1)c(C(=O)N/N=C/c1ccccc1Cl)c(C)n2C | inconclusive: 0.794 µM [activator, full curve, poor fit] | –
52 | CC(C)C(=O)N(Cc1ccc(F)cc1)Cc1nc2ccccc2c(=O)[nH]1 | inconclusive: 2.82 µM [activator, partial curve, poor fit] | –
53 | CC1Cc2ccccc2N1C(=S)Nc1ccc(S(N)(=O)=O)cc1 (stereo not given) | inactive | –
54 | CCC(=O)Nc1cccc(-n2nnnc2SCC(=O)N(C(C)C)C(C)C)c1 | inconclusive: 11.2 µM [activator, single point] | –
55 | CC(C)(C)C(=O)CC1(O)C(=O)N(Cc2ccccc2)c2ccccc21 (stereo not given) | inactive | –
56 | CC(=O)Nc1ccc(S(=O)(=O)NCC2CCC(C(=O)NC(C)c3ccccc3)CC2)cc1 (stereo not given) | inconclusive: 28.2 µM [activator, single point] | –
57 | CCC(C)n1c(SCC(=O)NC2CCCC2)nc2ccccc2c1=O (stereo not given) | inactive | –
58 | CNC(=S)N/N=C/c1cc(C)ccc1C | inconclusive: 28.2 µM [activator, single point] | –
59 | O=C(N/N=C/c1ccncc1)c1nc2ccccc2c(=O)[nH]1 | inconclusive: 0.316 µM [activator, full curve, poor fit] | –
60 | COc1ccccc1C(=O)C1CCCN(C(=O)c2cnn(C(C)C)c2)C1 (stereo not given) | inconclusive: 2 µM [activator, single point] | –
61 | COc1ccc(-c2ccnc3nc(N4CCOCC4)nn23)cc1 | inactive | –
62 | O=C(c1cccc(S(=O)(=O)Nc2cccc(C(F)(F)F)c2)c1)N1CCCCC1 | inconclusive: 11.2 µM [activator, partial curve, poor fit] | –
63 | O=C1NN(c2ccc(Cl)c(Cl)c2)C(=O)/C1=C/c1ccc(-c2ccccc2C(=O)O)o1 | inconclusive: 2.82 µM [activator, single point] | –
64 | Fc1ccc(Nc2nc(N3CCOCC3)nc(N3CCOCC3)n2)cc1 | inconclusive: 2 µM [activator, partial curve, poor fit] | –
65 | CCOc1ccccc1N(C)S(=O)(=O)c1ccc2c(c1)CC(C)N2C(=O)C1CC1 (stereo not given) | inconclusive: 5.01 µM [activator, single point] | –
66 | Cc1ccc(CNC(=O)c2cc3c(s2)CN(Cc2ccccc2)C3)cc1 | inconclusive: 6.31 µM [activator, single point] | –
67 | COCCNC(=O)Cn1nc(-c2ccc(C)cc2)ccc1=O | inactive | –
68 | COc1ccc(Cl)cc1NC(=O)Nc1cccc([N+](=O)[O-])c1C | inactive | –
69 | Cc1ccc(NC(=O)C(C)N=C2NS(=O)(=O)c3ccccc32)cc1F (stereo not given) | inactive | –
70 | CCCOc1ccc(Cc2c(Cl)nc(SC)nc2OC)cc1 | inactive | –
